Measured values as given in US20240408081A1, “NOVEL SYNERGISTIC COMBINATIONS AND METHODS OF USE THEREOF FOR TREATING CANCERS” (UNIVERSITE DE BORDEAUX, priority 2021, published 2024).
At least one structure is not confirmed: it was looked up by name or label, or the drawing left a doubt.

System: Huh6 and HepG2 cells
Assay: Clonogenicity assay
Format: cell-based, human
Conditions: GSK-126 3 and 4 μM for Huh6 and HepG2; ATR 8 μM; SIM 4 μM; 10 days
Method: Huh6 and HepG2 cells were seeded at 500 and 1000 cells/well respectively in 12-well plates. After attachment, cells were treated with drugs.
Following incubation at 37° C. for 10 days, the cells were fixed with 4% PFA and stained with 0.05% crystal violet. Reading under the Fusion FX (Vilber Lourmat).

SMILES: CCC(C)(C)C(=O)O[C@H]1C[C@@H](C)C=C2C=C[C@H](C)[C@H](CC[C@@H]3C[C@@H](O)CC(=O)O3)[C@H]21 [Simvastatin]
- proliferation and survival of hepatoblastoma cells (clonogenic cell assay): little effect
